# From patent US20150017162A1
# By UniProt entry, the sequences of proteins in these tests, tags left out. Where a name states a change or a piece, a line headed by the entry shows the natural chain unless it says otherwise.
# UniProt O00187: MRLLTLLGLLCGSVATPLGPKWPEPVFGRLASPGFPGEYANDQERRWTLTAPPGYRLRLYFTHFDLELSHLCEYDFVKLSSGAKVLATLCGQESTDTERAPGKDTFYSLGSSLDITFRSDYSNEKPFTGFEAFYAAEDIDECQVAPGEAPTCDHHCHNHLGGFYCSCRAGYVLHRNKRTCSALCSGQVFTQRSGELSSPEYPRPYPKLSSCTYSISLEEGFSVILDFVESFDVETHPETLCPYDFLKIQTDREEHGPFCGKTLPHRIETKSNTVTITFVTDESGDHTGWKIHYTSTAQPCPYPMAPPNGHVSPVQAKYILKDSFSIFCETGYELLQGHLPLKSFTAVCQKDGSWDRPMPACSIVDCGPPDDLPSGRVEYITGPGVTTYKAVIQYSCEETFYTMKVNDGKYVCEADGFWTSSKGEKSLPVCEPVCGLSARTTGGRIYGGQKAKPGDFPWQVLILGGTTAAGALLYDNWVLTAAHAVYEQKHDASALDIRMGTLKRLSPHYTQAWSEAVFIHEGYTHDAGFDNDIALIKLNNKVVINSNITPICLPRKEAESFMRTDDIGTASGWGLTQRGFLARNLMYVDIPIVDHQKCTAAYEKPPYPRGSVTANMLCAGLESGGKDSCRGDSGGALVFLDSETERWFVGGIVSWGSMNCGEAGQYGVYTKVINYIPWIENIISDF
# Where a chain is given by its changes, count along the chain named. Results are given in words; binding and its absence hold for the method and conditions named. Some binding calls cover weakened binding; strength is not graded here.
# B1: NimoAb101 (antibody, V domains shown)
# VH: EVQLVESGGGLVQPGRSLKLSCLVSGFTFSNFGMNWIRQAPGKGLEWVASISSGGTYIYHADTLKGRFTISRENAKNTLYLQMTSLRSEDTALYYCARGPYHSRYIPYLMDAWGQGASVTVSS
# VL: DIQMTQSPGSLCASLGETVTIECRASDDIYSNLAWYQQKPGNSPQLLIFDGNRLADGVPSRFSGSGSGTQYSLKMKSLQFEDVASYFCQQYNNYPLTFGSGTKLEIKR
# B2: scFv clone 17D20 (scFv)
# scFv: QVTLKESGPVLVKPTETLTLTCTVSGFSLSRGKMGVSWIRQPPGKALEWLAHIFSSDEKSYRTSLKSRLTISKDTSKNQVVLTMTNMDPVDTATYYCARIRAGGIDYWGQGTLVTVSSKLSGSASAPKLEEGEFSEARVQPVLTQPPSVSVSPGQTASITCSGDKLGDKFAYWYQQKPGHSPVLVIYQDNKRPSGIPGRFSGSNSGNTATLTISGTQAMDEADYYCQAWDSSTAVFGTGTKVTVLAAAGSEQKLISEEDLNSHHHHHH
# B3: scFv clone 4D9 (scFv)
# scFv: QITLKESGPVLVKPTETLTLTCTVSGFSLSNARMGVSWIRQPPGKALEWLAHIFSNDEKSYSTSLKSRLTISKDTSKSQVVLTMTNMDPVDTATYYCARMRYSSSLYGMDVWGQGTRVTVSSKLSGSASAPKLEEGEFSEARVSYELIQPPSVSVSPGQTASITCSGDKLGDKYVSWYQQKPGRSPVLVIYRDTKRPSGIPERFSGSNSGNTATLTISGTQAMDEADYYCQAWDSSTVVFGGGTKLTVLAAAGSEQKLISEEDLNSHHHHHH
# B4: scFv clone 17N16 (scFv)
# scFv: QVQLQQSGPGLVKPSQTLSLTCAISGDSVSSTSAAWNWIRQSPSRGLEWLGRTYYRSKWYNDYAVSVKSRITINPDTSKNQFSLQLNSVTPEDTAVYYCARDPFGVPFDIWGQGTMVTVSSKLSGSASAPKLEEGEFSEARVSYVLTQPPSVSVAPGQTARITCGGNNIGSKNVHWYQQKPGQAPVLVVYDDSDRPSGIPERFSGSNSGNTATLTVSRVEAGDEADYYCQVWDTTTDHVVFGGGTKLTVLAAAGSEQKLISEEDLNSHHHHHH
# B5: scFv clone 3F22 (scFv)
# scFv: B4 scFv with T32N, I162V, G170R, S193T
# B6: scFv clone 9P13 (scFv)
# scFv: B4 scFv with T32N, V145E, P149L, I162V, G170R, S193T, L247V
# Target: human MASP-2 (human) (UniProt O00187)
# Experiment: Western blot
row,binding,Binder
1,binds,B1

# Target: human MASP-2 (human) (UniProt O00187)
# Experiment: phage display panning and ELISA screening (Example 5, as told in the description)
row,binding,Binder
1,binds,B2
2,binds,B3
3,binds,B4
4,binds,B5
5,binds,B6
